Values quoted from earlier work as cited in publication PMC11387447 (Pharmacological Reports, 2024).

Settings: IIIATO group: single oral ATO 20 mg/kg b.w. alone, n = 8, adopted from previous study ref 12, cited from earlier work
[1] = rat plasma, median (quartiles) or mean ± SD (CV %)

CC(C)c1c(C(=O)Nc2ccccc2)c(-c2ccccc2)c(-c2ccc(F)cc2)n1CC[C@@H](O)C[C@@H](O)CC(=O)O [ATO, atorvastatin, reference compound]
tmax (median (quartiles)): 1.00 (1.00; 2.00) h
AUC0–∞ [1]: 169.45 (162.03; 194.68) ng × h/mL
Cmax [1]: 75.12 (47.94; 85.00) ng/mL
